# Results from PubChem BioAssay AID493014 (National Center for Advancing Translational Sciences (NCATS), 2011).
# The other results are listed elsewhere or left out. The main result of the screen is listed elsewhere. These columns were measured beside it and carry no call. Most of these compounds were active or inconclusive in the main read-out, so they are no random draw. The note in brackets gives the kind of curve behind each potency; many fits are weak.
# Experiment: qHTS Assay to Find Inhibitors of Chronic Active B-Cell Receptor Signaling
# Details: ABC-DLBCL IkBa-CBG/CBR reporter, luminescence ratio (green luciferase fused to IkBa over red control in TMD8 lymphoma cells), 4 h
# How it was run: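 Doxycycline induced both beetle luciferases in TMD8 lymphoma cells; IKK-driven degradation limits the IkappaBalpha-fused green signal, while red luminescence normalises for cell number and nonspecific effects. Compounds tested up to 46 uM, 4 hrs.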
# [1] = measured here: CBR red luminescence, cell number
# [2] = measured here: IkBa-CBG green luminescence
Compound,AC50 [1],AC50 [2]
CCC(CC)C(=O)Nc1cccc(C(=O)Nc2nccs2)c1,"12.6 µM [falling, single point]",–
CCn1c(C)c(C(C)=O)c(N2CCN(c3cccc(Cl)c3)CC2)nc1=S,"16.4 µM [falling, single point]",–
Cc1cccc(NC(=O)c2sc3nc(N)c(C#N)cc3c2N)c1,"23.1 µM [falling, partial curve]","25.9 µM [rising, partial curve, poor fit]"
Cc1nc2ccc(N=NN(C)C)cc2[nH]1,"8.91 µM [falling, partial curve, poor fit]",–
COc1ccc2c(c1)Cc1sc(NC(=O)c3cccc(Br)c3)nc1-2,"1.12 µM [rising, partial curve, poor fit]",–
COc1cc(CCC(=O)OCC(=O)NC(=O)c2ccc(Cl)cc2)cc(OC)c1OC,"10 µM [rising, single point]",–
Cc1c(NC(=O)CSc2ncnc3c2cnn3-c2ccccc2)c(=O)n(-c2ccccc2)n1C,"20.6 µM [falling, partial curve, poor fit]",–
CCOC(=O)Cc1c(C)nc2cc(-c3ccc(Cl)cc3)[nH]n2c1=O,"6.51 µM [falling, full curve]",–
Cc1ccccc1NC(=O)c1nc[nH]c1C(=O)NCc1ccccc1,"29.1 µM [rising, single point]",–
CCCc1cc(=O)c2c(O)ccc(OC)c2o1,"35.5 µM [rising, single point]",–
COc1ccccc1NS(=O)(=O)c1cc(C(=O)NCC(c2ccco2)N2CCCCC2)ccc1C (stereo not drawn),"29.1 µM [falling, single point]",–
CC(=O)c1cc(C#N)c(SCc2ccccn2)nc1C,"10 µM [rising, partial curve, poor fit]",–
O=C(NN1C(=O)c2ccccc2NC1c1ccoc1)c1ccccc1 (stereo not drawn),"35.5 µM [rising, single point]",–
COc1ccc(-n2cnc(N)c2C(=O)c2cccc([N+](=O)[O-])c2)cc1,"11.6 µM [falling, partial curve, poor fit]",–
Cc1ccc(NC(=O)Cc2ccc(-c3ccccc3)cc2)nc1,"14.1 µM [rising, single point]",–
COc1cccc2oc3cc(C#Cc4ccccn4)ccc3c(=O)c12,"11.2 µM [falling, single point]",–
COc1ccc(C(=O)NCC(=O)OCc2ccc(Br)cc2)cc1,"18.4 µM [rising, partial curve, poor fit]",–
CCn1c(SCC(=O)Nc2nnc(C)s2)nc2c(c1=O)SC(C)C2 (stereo not drawn),"0.58 µM [falling, partial curve, poor fit]",–
CSc1nnc(-c2sccc2-n2cccc2)o1,"14.1 µM [rising, single point]",–
CC1CCN(c2ccc(C(=O)NCCc3ccccc3)cn2)CC1,"6.31 µM [rising, single point]",–
COc1ccc(C(=O)NCC(=O)NCC(=O)OCc2ccc(Cl)cc2)cc1,"35.5 µM [rising, single point]",–

# Single records (already shown). Order of values: AC50 [1] | AC50 [2]
# `COc1ccc(C(=O)NCC(=O)OCc2ccc(Br)cc2)cc1` in the list: 18.4 µM [rising, partial curve, poor fit] | –
# `COc1cc(CCC(=O)OCC(=O)NC(=O)c2ccc(Cl)cc2)cc(OC)c1OC` in the list: 10 µM [rising, single point] | –

# Next part

Compound,AC50 [1],AC50 [2]
O=C(Nc1cc(Sc2ccccn2)cc([N+](=O)[O-])c1)c1cccc(F)c1,"5.17 µM [rising, partial curve, poor fit]",–
COc1coc(C(O)CN)cc1=O (stereo not drawn),"9.2 µM [rising, partial curve, poor fit]",–
CN(CC(=O)Nc1cccc(F)c1)C(=O)c1cccc(S(=O)(=O)N2CC3(C)CC2CC(C)(C)C3)c1 (stereo not drawn),"25.9 µM [falling, partial curve]",–
COc1cccc(C(=O)Nc2ccc(NC(=O)c3ccco3)c(Cl)c2)c1,"7.94 µM [falling, full curve, poor fit]",–
COc1ccc(C2CC(O)(c3ccccc3)Oc3cc(OC)cc(OC)c32)cc1 (stereo not drawn),"25.1 µM [falling, single point]","35.5 µM [rising, partial curve, poor fit]"
COc1ccc(C(=O)Oc2cc(OC)cc(OC)c2C(C)=O)cc1,"20.6 µM [rising, partial curve, poor fit]",–
O=C(Nc1nc2ccccc2[nH]1)c1ccc(F)c(S(=O)(=O)N2CCOCC2)c1,"10.3 µM [falling, partial curve]",–
COc1cccc(Cn2nnc(C(=O)NCc3ccccc3Cl)c2N)c1,"3.66 µM [falling, full curve, poor fit]",–
O=C(O)c1ccc(O)c(N2C(=O)Nc3ccccc3N2O)c1,"20.6 µM [falling, partial curve, poor fit]",–
O=C(Nc1cccc(-n2cnnn2)c1)C1CCCN(Cc2cccc(C(F)(F)F)c2)C1 (stereo not drawn),"12.6 µM [falling, partial curve, poor fit]",–
Cc1cc(OCC(=O)OC(C)C(=O)Nc2ccc(N3CCOCC3)cc2)ccc1Cl (stereo not drawn),"5.8 µM [rising, full curve, poor fit]",–
Cc1c(C(=O)N2CCOCC2)oc2ccc(Br)cc12,"29.1 µM [rising, single point]",–
COc1ccccc1-n1cnc2cc(NCc3ccco3)ccc21,"12.6 µM [falling, partial curve]","25.1 µM [falling, single point]"
Cc1c(C(=O)Nc2ccccn2)sc2nc3n(c(=O)c12)CCC3,"35.5 µM [falling, single point]",–
CN(C)c1cc(N/N=C\c2ccccc2)nc(N(C)C)n1,"0.447 µM [rising, full curve, poor fit]",–
CCCC(C)NC(=O)c1ccc(C2SCC(=O)N2Cc2ccco2)cc1 (stereo not drawn),"0.0651 µM [rising, full curve, poor fit]","2.91 µM [falling, partial curve, poor fit]"
CC(C)[C@@H](C(=O)NC1CC1)N1C(=O)N2CCc3c([nH]c4ccccc34)[C@@]2(C)C1=O,"14.1 µM [falling, partial curve, poor fit]",–
c1ccc2[nH]c(SCc3cscn3)nc2c1,"4.11 µM [rising, partial curve, poor fit]",–
COc1cc(C(=O)Nc2ccc3nc4n(c(=O)c3c2)CCCCC4)cc(OC)c1OC,"14.1 µM [falling, partial curve, poor fit]",–
CCOC(=O)c1ccoc1CSCc1ccc(C(=O)OC)o1,"0.731 µM [rising, partial curve, poor fit]",–
O=C1CCCN1c1ccc(Br)cc1,"32.6 µM [rising, single point]",–

Compound,AC50 [1],AC50 [2]
CCOC(=O)CNS(=O)(=O)c1c(C)noc1C,"2.06 µM [falling, partial curve, poor fit]",–
CCN(CC)C1CCN(C(=O)c2cc(COc3ccccc3SC)on2)C1 (stereo not drawn),"0.251 µM [rising, full curve, poor fit]",–
COc1ccc(O)c(CNc2ccccc2F)c1,–,"35.5 µM [falling, partial curve, poor fit]"
CC(=O)Nc1cccc(-c2nnc(SCC(=O)n3c4c(c5ccccc53)CCCC4)n2C)c1,"29.1 µM [rising, single point]",–
Cc1cc(NC(=O)c2ccccc2)ccc1NC(=O)c1ccccc1Cl,"11.2 µM [rising, partial curve]","11.2 µM [falling, single point]"
O=C(NC1CC2CCCC(C1)N2C(=S)NCCc1ccccc1)C1CC1 (stereo not drawn),"0.398 µM [rising, full curve, poor fit]",–
CCc1ccc(NC(=O)Cn2c(=O)c3cccn3c3ccccc32)cc1,"25.1 µM [rising, single point]",–
O=C(O)c1cc(-c2cccs2)nc2cc3c(cc12)OCCO3,"20.6 µM [falling, single point]",–
Cc1nn(-c2ccccc2)c(C)c1C(=O)OCC(=O)Nc1ccc2c(c1)OCO2,"25.1 µM [falling, single point]",–
O=C(N/N=C\c1cccc(F)c1)c1ccc(-c2ccccc2)cc1,"1.26 µM [rising, full curve, poor fit]",–
CCOc1ccc2nc(N(CCN(C)C)C(=O)/C=C/c3cccs3)sc2c1,"17.8 µM [falling, partial curve, poor fit]",–
Cc1c(C(=O)NCc2ccccc2Cl)oc2c1C(=O)CCC2,"2.91 µM [falling, full curve, poor fit]",–
Cc1[nH]c2ccccc2c1-c1nc(-c2ccc(Cl)cc2)nnc1-c1ccccc1,"7.94 µM [falling, partial curve]",–
CC1CCCN(Cc2nc3c(c(=O)n(C)c(=O)n3C)n2CCCc2ccccc2)C1 (stereo not drawn),"3.26 µM [falling, partial curve]","4.11 µM [rising, partial curve, poor fit]"
O=C(COc1ccccc1)N(CCc1ccccc1)c1nc(-c2ccc(F)cc2)cs1,"10 µM [rising, partial curve, poor fit]",–
CCOc1ccc(OCCC(=O)OCC(=O)N2CCN(S(=O)(=O)c3ccc(Cl)cc3)CC2)cc1,"2.24 µM [falling, partial curve, poor fit]",–
CCOC(=O)c1ccc(NC(=O)CN2C(=O)CSC2=O)cc1,"7.08 µM [rising, full curve, poor fit]",–
O=C(C1CCN(Cc2nc(-c3ccc(Cl)cc3)no2)CC1)N1CCOCC1,"1.12 µM [rising, full curve, poor fit]",–
COc1ccc(-c2csc(-n3cccn3)n2)cc1,"3.16 µM [rising, partial curve]",–
CC(C)=NOc1cc(NC(=O)CCl)cc([N+](=O)[O-])c1,"13 µM [falling, partial curve, poor fit]",–
